Reference: PubChem BioAssay AID624291 (National Center for Advancing Translational Sciences (NCATS), 2012)
Among all 350,000 compounds or so, about 220 (0.063%) were called active. Inconclusive results, whose numbers are uncertain, are shown with a selection of clear calls. Calls follow the shape of the dose curve; as a rule, active = well fitted activation curve with a large enough effect; inconclusive = small, poorly fitted or top-dose-only effect; inactive = no such curve, though single readings can be large or run the other way. Potencies beside an inconclusive call are fits to weak or partial responses and may not hold up.

assay: qHTS for Activators of Integrin-Mediated Alleviation for Muscular Dystrophy; settings: alpha7betagal myoblasts, beta-gal FDG fluorescence, 48 h; activation: at 38.3 µM (top of the series); also: nearly all actives have a fitted effect of over 60% in size;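 as to activation: 100% = response of the positive control SU9516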
Outline: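 Alpha7betagal+/- myoblasts (passage 13) were plated 16-24 hr, then exposed to compounds (1:260 dilution of DMSO stock) for 48 hours at 37C. After MPER lysis, β-galactosidase reporter activity was read as FDG fluorescence (ex 480/em 540) after 30 minutes.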
Potency is read from the fitted curve at half-maximal effect.

Row | SMILES | Potency | activation
1 | Cc1ccc2c(COC(=O)CNC(=O)c3ccccc3)cc(=O)oc2c1 | inconclusive: 12.6 µM [activator, single point] | –
2 | CCOc1ncccc1C(=O)OCC(=O)c1ccc(Cl)s1 | inconclusive: 10 µM [activator, single point] | –
3 | O=C(Nc1ccc(CN2CCCCC2)cc1)Nc1ccccc1Cl | inactive | –
4 | CCc1cc(-c2n[nH]c(C)c2-c2nc3ccccc3n2C)c(O)c(CN2CCN(C)CC2)c1O | inactive | –
5 | COc1cccc(N(C(=O)CNC(=O)c2ccco2)C(C(=O)NC2CCCC2)c2cccnc2)c1 (stereo not drawn) | inconclusive: 28.2 µM [activator, single point] | –
6 | COc1ccccc1N1CCN(C(=O)c2sc3nc(C)nc(N4CCN(c5ccccn5)CC4)c3c2C)CC1 | inconclusive: 2.82 µM [activator, partial curve, poor fit] | –
7 | COc1ccccc1NC(=O)c1cc2c(CO)cnc(C)c2oc1=Nc1ccc(OC)c(OC)c1 | inconclusive: 5.01 µM [activator, single point] | –
8 | CN1/C(=C/c2cc[n+](C)c3ccccc23)C=Cc2ccccc21 | – | inconclusive: -66.5% [activator]
9 | COC(=O)c1cccc(NC(=S)NCc2ccc(Cl)cc2)c1 | inactive | –
10 | C/C(=N\Nc1ccc([N+](=O)[O-])cc1)c1ccc(O)cc1 | inactive | –
11 | O=C(Nc1cccc(F)c1)C1CCCN(c2cnccn2)C1 (stereo not drawn) | inconclusive: 0.708 µM [activator, partial curve, poor fit] | –
12 | NS(=O)(=O)c1ccc(CNC(=O)Cc2ccccc2[N+](=O)[O-])cc1 | inconclusive: 28.2 µM [activator, single point] | –
13 | NC(=O)[C@@H]1CCCN1C(=O)c1cc(COc2ccc(F)cc2F)on1 | inconclusive: 2 µM [activator, partial curve, poor fit] | –
14 | CCN(CC)C(=O)[C@H]1C[C@H](CC(=O)NCC23CC4CC(CC(C4)C2)C3)C(=O)N2CCc3c([nH]c4ccc(Cl)cc34)[C@]12C | inactive | –
15 | Cc1ccccc1CNS(=O)(=O)c1c(C(=O)N2CCCC2)c(C)n(C)c1C | inconclusive: 1 µM [activator, full curve, poor fit] | –
16 | O=C(COC(=O)c1cccs1)Nc1ccccc1 | inconclusive: 5.01 µM [activator, single point] | –
17 | COc1ccc(COc2cccnc2N)cc1 | inconclusive: 28.2 µM [activator, single point] | –
18 | CCOC(=O)c1c(C)n(OCc2ccccc2)c2ccc3c(no[n+]3[O-])c12 | inconclusive: 11.2 µM [activator, partial curve, poor fit] | –

Three entries out of the list, arranged by number of heavy atoms, ascending:
Row | SMILES | Potency | activation
18 | CCOC(=O)c1c(C)n(OCc2ccccc2)c2ccc3c(no[n+]3[O-])c12 | inconclusive: 11.2 µM [activator, partial curve, poor fit] | –
6 | COc1ccccc1N1CCN(C(=O)c2sc3nc(C)nc(N4CCN(c5ccccn5)CC4)c3c2C)CC1 | inconclusive: 2.82 µM [activator, partial curve, poor fit] | –
14 | CCN(CC)C(=O)[C@H]1C[C@H](CC(=O)NCC23CC4CC(CC(C4)C2)C3)C(=O)N2CCc3c([nH]c4ccc(Cl)cc34)[C@]12C | inactive | –
